In article PMC7819943, “Rice protein-binding microarrays: a tool to detect cis-acting elements near promoter regions in rice”:
The other results are listed elsewhere or left out.

The sequences below were run against T1, OsSMF1 (Oryza sativa, UniProt Q6ZLB0 1-436) (assay: protein-binding microarray (RPBM); PBS, 2% BSA, 51.3 ng/ul salmon testes DNA, 50 uM zinc acetate, 200 nM TF, 25 C, 1 h; high values mean tight binding). Conditions: protein: recombinant; tags: N-terminal polyhistidine and DsRed monomer fusion (pET32a); chain copies: 2; label: CyDye5-dUTP incorporated in the synthesized complementary strand; 3' TTTTT single-stranded linker to array surface; dsDNA, one strand shown.
T1 sequence: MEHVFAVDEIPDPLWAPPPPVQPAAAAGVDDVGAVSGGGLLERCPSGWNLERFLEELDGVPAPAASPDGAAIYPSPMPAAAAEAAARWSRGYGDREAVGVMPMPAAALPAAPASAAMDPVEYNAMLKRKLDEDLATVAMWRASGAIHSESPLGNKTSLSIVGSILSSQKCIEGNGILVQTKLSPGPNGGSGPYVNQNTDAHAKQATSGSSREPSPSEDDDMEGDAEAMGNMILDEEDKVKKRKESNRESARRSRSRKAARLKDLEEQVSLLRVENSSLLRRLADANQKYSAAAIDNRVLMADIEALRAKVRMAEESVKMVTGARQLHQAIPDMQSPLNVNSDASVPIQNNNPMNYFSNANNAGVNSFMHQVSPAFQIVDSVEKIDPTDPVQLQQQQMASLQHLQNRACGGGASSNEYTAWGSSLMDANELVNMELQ
Outline: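 Binding signal is reported as fluorescence intensity per feature (arbitrary units) from an Axon 4000B scanner. Incubation used 200 nM of each Ni–NTA-purified, N-terminally polyhistidine- and DsRed-fused transcription factor from E. coli BL21-CodonPlus on a double-stranded custom Agilent array for 1 h at 25 °C, with 50 µM zinc acetate in the buffer, followed by washing.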
In the case of “ATTAGGGGATTGCTGACCGTGTTTGTCTTGGGTTGTTGCCCGGAGTCACCTAGTGCAG”, the binding signal is reported as 4770 fluorescence intensity (a.u.).
With “AAATCACGTCATTGTATTGTGTTTTGAAGCTTGTTTGATCCGGAGTCACCTAGTGCAG” the binding signal was 3250 fluorescence intensity (a.u.).
In the case of “CGGCGGCGGCGGCATTGGTCTGCGTCGCCGTGGTGAATTCCGGAGTCACCTAGTGCAG”, the binding signal is reported as 3630 fluorescence intensity (a.u.).
In the case of “ATTGGAGTCTGCTCCACGCCACATGGATCCTATAAATTCCCGGAGTCACCTAGTGCAG”, the binding signal is reported as 3360 fluorescence intensity (a.u.).
“CGGTCCCTAAACTTGTAGGGCTATGTCATCTAGGTCCCAACGGAGTCACCTAGTGCAG” was tested, and the binding signal was 3380 fluorescence intensity (a.u.).
In the case of “AAGCACACCACGAGCGCCCCACGTGGTCAGTGGTCGGCCTCGGAGTCACCTAGTGCAG”, the binding signal is reported as 6610 fluorescence intensity (a.u.).
With “AGGAGAGTGGTGGAGGAGAGGAAGAATAGAAATGCCACTTCGGAGTCACCTAGTGCAG” the binding signal was 3600 fluorescence intensity (a.u.).
For “TCTTGTGCTGAAGTGTCATGGATGACGTACTCCACAACTACGGAGTCACCTAGTGCAG”, the binding signal was 9340 fluorescence intensity (a.u.).
“GATGGGTATACTAGAGGGGAGGAGGAGGAGGACGAGGACACGGAGTCACCTAGTGCAG” was tested, and the binding signal was 3210 fluorescence intensity (a.u.).
In the case of “ATTAGGACCCAACTTGAATGTTATGAATGACTGTTCACTGCGGAGTCACCTAGTGCAG”, the binding signal is reported as 4430 fluorescence intensity (a.u.).
“CCATATATATACTGACATTCAATACTTACAACGTGTCCGACGGAGTCACCTAGTGCAG” was tested, and the binding signal was 3210 fluorescence intensity (a.u.).
For “CGCCACTTGGCGGTTTAGGAGCGTTTGTAGGAAGTTTCATCGGAGTCACCTAGTGCAG”, the binding signal was 3210 fluorescence intensity (a.u.).
With “CTTCTGGCCCGAAAGATATTTGCTGACTCAAGTACCTCAGCGGAGTCACCTAGTGCAG” the binding signal was 10300 fluorescence intensity (a.u.).
With “TGAATTCGTAGCCTGCACGTGATGCACAGCGTGCTGAAGACGGAGTCACCTAGTGCAG” the binding signal was 3190 fluorescence intensity (a.u.).
For “ACAAGTACTTAATGATTAAAATGTGCATGTGCCGAGTATACGGAGTCACCTAGTGCAG”, the binding signal was 37300 fluorescence intensity (a.u.).
For “ACCGTTTGCATGGATGCATGAGAAACAGCTCATCCCTATTCGGAGTCACCTAGTGCAG”, the binding signal was 3930 fluorescence intensity (a.u.).
With “AGGATTGTTGACATGTCCTTTGTTTTAGACTGGGCAGTGTCGGAGTCACCTAGTGCAG” the binding signal was 3650 fluorescence intensity (a.u.).
In the case of “ATGCATGAGTCACTCACCGCTCAGCAGGTCTTCGTCACTGCGGAGTCACCTAGTGCAG”, the binding signal is reported as 10100 fluorescence intensity (a.u.).
“TGTGACACATGTTACACATAATTATTATGTGAGTGGTAAACGGAGTCACCTAGTGCAG” was tested, and the binding signal was 4020 fluorescence intensity (a.u.).
“ACCCTGACCTGACATGGAATATGCCCTAGTATATGTTGTTCGGAGTCACCTAGTGCAG” was tested, and the binding signal was 4960 fluorescence intensity (a.u.).
“ATCTCGGATAGCGTCCACGTGAATAAGCTTGAGCTCGATTCGGAGTCACCTAGTGCAG” was tested, and the binding signal was 3620 fluorescence intensity (a.u.).
“AGATAAATATAATAACCTTGTGATAACCATGCGGTTTGGTCGGAGTCACCTAGTGCAG” was tested, and the binding signal was 3590 fluorescence intensity (a.u.).
In the case of “CAGTGCCCTTTCCCCACATCAGCTGTCCGATCCGGCAGTCCGGAGTCACCTAGTGCAG”, the binding signal is reported as 4360 fluorescence intensity (a.u.).
For “CCCTTATGATTTCTAGATCGTAGTGTGTTGCCTTGTTAAACGGAGTCACCTAGTGCAG”, the binding signal was 3480 fluorescence intensity (a.u.).
“TGTAACAATGTTTAATGATCAATAAAGCTAGCCGAATGGTCGGAGTCACCTAGTGCAG” was tested, and the binding signal was 3280 fluorescence intensity (a.u.).
“CGCAAACAGCAAGCAGCGTTGCCGGCCTTGGCTTGGCTGGCGGAGTCACCTAGTGCAG” was tested, and the binding signal was 3360 fluorescence intensity (a.u.).
“AAGGAATCTGGACGCCACCCCACCACACCACCACTACCCCCGGAGTCACCTAGTGCAG” was tested, and the binding signal was 3790 fluorescence intensity (a.u.).
With “CCAGCCGCGCCACCGCTCCCTCGCTGACCTGCCCGTGTTCCGGAGTCACCTAGTGCAG” the binding signal was 3350 fluorescence intensity (a.u.).
“ATGTGCAAATTTCTCTTGATGATGACAGTTCAAAGGATGACGGAGTCACCTAGTGCAG” was tested, and the binding signal was 3390 fluorescence intensity (a.u.).
For “TATTTGTTGCTTAGTGCCTCCATCATGTTTACTGGTTGGTCGGAGTCACCTAGTGCAG”, the binding signal was 3380 fluorescence intensity (a.u.).
For “AGCTTCATAGGAAAACTTCCCTAAAGATTTAAATCTTATGCGGAGTCACCTAGTGCAG”, the binding signal was 3280 fluorescence intensity (a.u.).
With “AGTTAGCATTGTGATGTGGCACATCTAATCTCATCTCTCTCGGAGTCACCTAGTGCAG” the binding signal was 7510 fluorescence intensity (a.u.).
With “ACCGACCCTTCCGACCGGTTCTTCCGGTGCCACGCACTCACGGAGTCACCTAGTGCAG” the binding signal was 4520 fluorescence intensity (a.u.).
With “ATTCTGGCTGACCCTTGGGTGAGTCACAATAGATGTGTATCGGAGTCACCTAGTGCAG” the binding signal was 13800 fluorescence intensity (a.u.).
For “ATGATGCTTCAAGAAGGTCATGACGCTCTTATTTGTGTTGCGGAGTCACCTAGTGCAG”, the binding signal was 3560 fluorescence intensity (a.u.).
For “CTAGTTTGAACCGTTACCCATCAGTCTATAAGCAGCACAACGGAGTCACCTAGTGCAG”, the binding signal was 4920 fluorescence intensity (a.u.).
For “ATCACGGAGGAGGCGTTCGGGGAGGGAGGGTGGGGCGCGCCGGAGTCACCTAGTGCAG”, the binding signal was 5770 fluorescence intensity (a.u.).
“GCGTGCGCCACCGATGACGCAGTCACTCGGCTAACACGCGCGGAGTCACCTAGTGCAG” was tested, and the binding signal was 5750 fluorescence intensity (a.u.).
In the case of “CACGGGGTGGTCGCGGGTCACAGTGACGGACGGTGCACGGCGGAGTCACCTAGTGCAG”, the binding signal is reported as 20200 fluorescence intensity (a.u.).
With “CGGCGAGGCGAACTCAACGGGTACGCAAAGCGAAGAGGAGCGGAGTCACCTAGTGCAG” the binding signal was 45600 fluorescence intensity (a.u.).
In the case of “GAAATTTCATCACCATGGGAACGGTGACGCGGATGTAACCCGGAGTCACCTAGTGCAG”, the binding signal is reported as 6090 fluorescence intensity (a.u.).
In the case of “CGAATCTTTTGAGCCTAATTAATCTATCATTAGCACATGTCGGAGTCACCTAGTGCAG”, the binding signal is reported as 3170 fluorescence intensity (a.u.).
